## Library screen at single concentrations

From ChEMBL document CHEMBL3988442, “University of Dundee, Small-Polar-MMV Screening Library” (2021).

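Whole-cell growth test on Mycobacterium tuberculosis, read after 4 days in a medium based on cholesterol and the lipid DPPC; the read-out is not stated. Concentration: 50 µM. The record gives no direction; compounds that gave an IC50 in retests scored well above the rest, so higher reads as more growth inhibition. About 69,000 compounds were tested under these conditions; 0.54% (about 370) showed 50% or more at least once.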

The filed quantity is “Percent Effect” (%). The controls that fix the scale are not given in the record; negative values are as filed. The compounds are a random part of those screened. Two or more numbers in one place are separate tests of the same structure; such repeats can differ widely.

| SMILES | effect |
|---|---|
| `F[C@@H]1CN(CC2CC2)C[C@@H]1OCc1nc2ccc(C(F)(F)F)cc2[nH]1` | 6.577 |
| `Cn1cccc1C(=O)NCc1cn2c(n1)CN(CC1CCOCC1)CC2.O=C(O)C(F)(F)F` | -3.64 |
| `c1ccc(-c2nnc3sc(CCN4CCCCCC4)nn23)cc1` | 14.85 |
| `CN(CCc1ccccn1)C(=O)Nc1cc(C(F)(F)F)c[nH]c1=O` | 2.54 |
| `COc1ccc(S(=O)(=O)C(F)(F)F)cc1NC(=O)CSC` | -0.01855 |
| `CN(C)CC1COCCN1C(=O)C1(c2cccs2)CCCC1.O=CO` (stereo not given) | 24.74 |
| `Cc1nn(C)c2cnn(CC(=O)NCc3cccs3)c12` | -4.976 |
| `O=C(Cc1ccc2c(c1)CCO2)N1CCCC(n2cccn2)C1` (stereo not given) | 8.453 |
| `CCc1cc(NC2CCS(=O)(=O)C2)nc(N2CCCCC2)n1` (stereo not given) | 8.722 |
| `COc1ccnc(N2CCN(Cc3ncc(C(C)(C)C)o3)CC2)n1` | -21.3 |
| `COCCNC(=O)CNC(=O)c1nc(Cc2c(Cl)cccc2Cl)no1` | -21.25 |
| `N#Cc1ccc(F)cc1Cn1cnc(C2CCC2)cc1=O` | -6.568 |
| `COCc1noc(-c2ccc(N3CCCC3c3ccc(F)cc3)nc2)n1` (stereo not given) | -0.1746 |
| `NC(=O)NC(=O)CN1CCN(c2nccs2)CC1` | -12.27 |
| `CN1CCN(c2ncnc3c2c(C(=O)NC2CC2)c2ccccn23)CC1` | -10.48 |
| `COc1c(C)cnc(CN(C)C2CCCCC2)c1C` | 14.58 |
| `c1ccc(CN2CCC(Nc3ncnc4c3CCNCC4)C2)cc1` (stereo not given) | -3.11 |
| `Cc1cc(Nc2ncccn2)nc(C2CCCN(CCO)C2)n1` (stereo not given) | 0.3362 |
| `Oc1ccc(CCC2CCCCN2Cc2noc(C3CC3)n2)cc1` (stereo not given) | 2.5 |
| `CCS(=O)(=O)N1CCCn2cnc(COc3cccnc3)c2C1.O=C(O)C(F)(F)F` | -7.614 |
| `CCc1cc(C(F)(F)F)c2c(C3CCN(C(=O)COC)CC3)noc2n1` | 4.015 |
| `O=C(O)C(F)(F)F.O=C(O)C(F)(F)F.[H][C@]12COC[C@@H](N(C)C)[C@@]1([H])CN(Cc1ccc3c(c1)OCO3)C2` | 0.9959 |
| `Cc1occc1C(=O)N1CCC2(CC1)NC(=O)CC2c1cnn(C)c1` (stereo not given) | 0.4943 |
| `O=C(O)C(F)(F)F.O=C(c1ccccc1)N1CCCC2(CCN2Cc2cccc(F)c2)C1` (stereo not given) | -13.56 |
| `CN(C)CCNC(=O)c1cc(-c2cnc(N(C)C)nc2)cn1CC1CC1` | 1.84 |
| `Cc1cc(F)ccc1N1CCC(N2C[C@@H](C)[C@@](C)(O)C2)CC1` | 14.99 |
| `OCC(CO)N1CCC(c2nnc(Cn3ccnc3)n2C2CC2)CC1` | 13.65 & -2.07 |
| `CC1(COc2ccccc2)NCCc2[nH]cnc21` (stereo not given) | -12.11 |
| `O=S(=O)(CCNCc1ccc(Cl)cc1)N1CCOCC1` | 4.635 & -0.2547 |
| `[H][C@]12CC[C@@]3(N=C(CC)N(C)C3=O)[C@@]1([H])CN(C(=O)NCc1ccccc1)C2` | -21.18 |
| `Cn1cnc2c1C(COCC1CCOCC1)CN(C(=O)c1ccoc1)C2` (stereo not given) | 1.956 |
| `CC(C)N(CCNc1nc(C2CCCC2)nc2c1cnn2C)C(C)C` | 71.17 & 44.75 |
| `[H][C@]12CCC[C@@]1(COCc1ccccn1)CN(C(=O)Cc1ccsc1)C2` | -31.26 |
| `Cc1ccc(C(C)NC(=O)N2CCN(S(C)(=O)=O)CC2)o1` (stereo not given) | -0.1532 |
| `COc1ccc(OCc2cc(C(=O)N3CCSCC3)n[nH]2)c(Cl)c1` | -2.936 |
| `[H][C@]12CCN(C(=O)Cc3cccc(OC)c3)[C@@]1([H])CCC(=O)N2` | -3.272 |
| `Cc1nn(C)c(Cl)c1C1CCCN1Cc1cn2ccsc2n1` (stereo not given) | 3.076 |
| `CC(c1cccnc1)N(C)Cc1csc(-c2ccccn2)n1` (stereo not given) | -12.76 |
| `[H][C@@]12C=C[C@@]([H])(C1)[C@H](C(=O)N1CCN(c3cc(C)nc(CC)n3)CC1)C2` | 7.953 |
| `CCc1nc(C2CCCN2CCC(=O)N2CCc3ccccc32)no1` (stereo not given) | 14.74 |
| `[H][C@]12CC[C@]([H])(CN(Cc3cccnc3)C1)N(C(=O)CSc1ccncc1)C2` | -4.948 |
| `O=C(O)c1cc(S(=O)(=O)Nc2cc(F)ccc2F)cc2c1OCCO2` | -18.65 |
| `CNC(=O)NC(=O)CN(CC(C)O)c1ccccc1` (stereo not given) | 21.46 |
| `Cc1ccccc1CNCc1cc(Cl)ccc1O` | -3.035 |
| `O=C1CCc2cc(S(=O)(=O)NCc3cc4n(n3)CCNC4)ccc2N1` | 2.05 |
| `Cn1cc(NS(=O)(=O)c2ccc(OC(F)(F)F)cc2)ccc1=O` | -10.85 |
| `COCc1noc(CN2C[C@H](C3CC3)[C@@H](N(C)C)C2)n1` | 9.689 |
| `OC(CNCCc1nnc2ccccn12)c1ccc(F)c(F)c1` (stereo not given) | -2.87 |
| `CC1=NN(c2ccc(C(=O)N3CCCC(n4ccnc4)C3)cc2)CC1` (stereo not given) | 7.652 |
| `Cc1cc(F)c(C(C(=O)O)N2CCN(Cc3ccccn3)CC2)cc1Cl` (stereo not given) | 8.849 |
| `Cc1nc2n(n1)CC(NCc1nc(-c3cccs3)no1)CC2` (stereo not given) | 35.06 |
| `COCCN1CC[C@@H](O)[C@@H]1Cc1ccccc1.O=C(O)C(F)(F)F` | -3.109 |
| `CN(CCc1nccs1)C(=O)C1(C#N)CCCCC1` | -0.5254 |
| `Cc1ccc(S(=O)(=O)NCC2(O)CCOc3ccccc32)s1` (stereo not given) | 16.88 |
| `CC(CS(C)(=O)=O)NC(=O)N1CC2(CCCC2)c2ccccc21` (stereo not given) | 9.954 |
| `COC1CCN(C(=O)c2ccc3ncsc3c2)CC1` | -13.34 & -15.21 |
| `Cn1ccc2cc(CC3COCCN(C(=O)c4ccccn4)C3)ccc21` (stereo not given) | -12.54 & -8.93 |
| `Cc1ccccc1C1CCN(CCn2cc(-c3nccn3C)nn2)C1` (stereo not given) | -2.039 |
| `CC(C)c1nnc(NC(=O)C2CSCN2C(=O)C2CCC2)s1` (stereo not given) | -13.91 |
| `COc1cccc(CN2CCCCCC2c2cccs2)c1OC` (stereo not given) | 14.6 |
| `Cc1csc(CN(C)C(=O)c2cccc(CCC(C)(C)O)c2)n1` | 3.857 & 1.047 |
| `CCn1nc(C)c(-c2cncn2Cc2ccccc2CN(C)C)c1C.Cl` | 8.578 |
| `Cc1cc(NCc2cc3n(n2)CCCN(C(=O)C2CCC2)C3)nc(N)n1` | 8.07 |
| `COCc1nc2cc3c(cc2c(=O)o1)OCCCO3` | -33.77 |
| `Cc1cc(C2CCCN(C(=O)CN3CCN(C)CC3)C2)n[nH]1` (stereo not given) | -10 |
| `Cc1ccc(NC(=O)CNc2cccc(C(N)=O)c2C)c(C)c1` | -12.36 |
| `Cc1ccc(CN2CCN(c3ncccc3C(N)=O)CC2CCO)cc1` (stereo not given) | -17.28 |
| `COCCCN(Cc1ccccc1Cl)C1CCS(=O)(=O)C1` (stereo not given) | -4.807 |
| `Cc1ccsc1C(=O)N1CCC(O)(CN2CCc3ccccc3C2)C1` (stereo not given) | -5.344 |
| `COCC(=O)N1CCCC1c1cc(N2CCN(C(C)=O)CC2)cc(C)n1` (stereo not given) | -38.04 |
| `CNC(=O)c1cc(-c2ccccc2OC)[nH]n1` | 6.747 |
| `[H][C@]12C[C@H](NC(=O)C(C)C)[C@@]1([H])CN(S(=O)(=O)c1ccc(C)cc1)C2` | -5.094 |
| `Cc1ccnc(C2(C)CCCN2S(=O)(=O)c2ccccc2)n1` (stereo not given) | -9.053 & -11.61 |
| `Cc1ccc2cccc(C(=O)N3CCN(c4cccnn4)CC3)c2n1` | -0.2628 |
| `CCn1cc(CNCc2ccc(C(=O)OC)cc2)c(C)n1` | -20.61 |
| `CC1c2ncc(COCC3CCOCC3)n2CCN1S(C)(=O)=O` (stereo not given) | -3.859 |
| `Cc1cnn(-c2cccc(N3CCCC3)n2)c1` | -9.899 |
| `O=C(O)C(F)(F)F.[H][C@@]12C[C@H](C(=O)NCCOC)CN(Cc3ccoc3)[C@]1([H])CCO2` | -15.36 |
| `O=C(O)c1cc2c(nc1O)CC(c1cccs1)CC2=O` (stereo not given) | -8.337 |
| `CC(CNC(=O)c1cc(Cn2cnc3ccccc32)[nH]n1)N1CCCC1` (stereo not given) | 6.933 |
| `Cc1ccsc1CCNC(=O)CCC(=O)NC1CCCC1` | 11.19 |

The last 7 entries again:

SMILES,effect
CCn1cc(CNCc2ccc(C(=O)OC)cc2)c(C)n1,-20.61
CC1c2ncc(COCC3CCOCC3)n2CCN1S(C)(=O)=O (stereo not given),-3.859
Cc1cnn(-c2cccc(N3CCCC3)n2)c1,-9.899
O=C(O)C(F)(F)F.[H][C@@]12C[C@H](C(=O)NCCOC)CN(Cc3ccoc3)[C@]1([H])CCO2,-15.36
O=C(O)c1cc2c(nc1O)CC(c1cccs1)CC2=O (stereo not given),-8.337
CC(CNC(=O)c1cc(Cn2cnc3ccccc32)[nH]n1)N1CCCC1 (stereo not given),6.933
Cc1ccsc1CCNC(=O)CCC(=O)NC1CCCC1,11.19